Mtb cholesterol medium: 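Phenotypic screen: M. tuberculosis growth, cholesterol and DPPC medium, 4 days; the read-out is not stated. Compounds at 50 µM. The record gives no direction; compounds that gave an IC50 in retests scored well above the rest, so higher reads as more growth inhibition. About 69,000 compounds were tested under these conditions; 0.54% (about 370) showed 50% or more at least once.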
Mtb glucose medium: 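Phenotypic screen: M. tuberculosis growth, glucose 7H9 medium, 3 days; the read-out is not stated. Compounds at 50 µM. Direction is inferred from retests: higher values go with more growth inhibition. About 69,000 compounds were tested under these conditions; 1.1% (about 760) showed 50% or more at least once.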

Results are given as percent effect. The record does not define 0% and 100%; most values in the screen are far below 50% and negative numbers occur (in some assays of this library far below -100). Compounds were drawn at random from those tested, without regard to their results. Two or more numbers in one place are separate tests of the same structure; such repeats can differ widely.

CCN1CCC2(COCc3c(C)nc(N4CCOCC4)nc32)C1 (configuration not stated) gave Mtb cholesterol medium: -2.79% & 1.204%; Mtb glucose medium: -26.19% & -7.149%. Cn1ccnc1CN(CCCO)C1CCCc2ccccc21 (configuration not stated) read Mtb cholesterol medium: 17.13%; Mtb glucose medium: 3.701% & 10.94%. For COCCN1CCC2(CCCN(C(=O)c3cnoc3C)C2)C1=O (configuration not stated) the result was Mtb cholesterol medium: -24.33%; Mtb glucose medium: -32.06%. With Cc1cc(C)n(CC2CCCN2C(=O)CCc2cscn2)n1 (configuration not stated) the screen gave Mtb cholesterol medium: -0.8363%; Mtb glucose medium: -24.02%. For CCCc1noc(CN2CCN(CCC(C)C)CC2)n1 the result was Mtb cholesterol medium: 3.261%; Mtb glucose medium: 2.745% & -0.5306%. Result for O=C(O)C(F)(F)F.[H][C@@]12OCCN(CCOCc3ccccc3)[C@@]1([H])CC[C@H]2OC was Mtb cholesterol medium: 5.844%; Mtb glucose medium: -33.67%. With CCOc1ccc(NC(=O)N2CCC(n3cncn3)CC2)cc1Cl the screen gave Mtb cholesterol medium: -11.25%; Mtb glucose medium: 8.322%. CC(O)(CNC(=O)c1cccnc1-n1cccn1)c1cccs1 (configuration not stated) read Mtb cholesterol medium: 4.594%; Mtb glucose medium: 17.84%.

With N#CCSCC(=O)NCC1CCCCC1 the screen gave Mtb cholesterol medium: -3.375% & -26.52%; Mtb glucose medium: -5.688%. Result for O=C(N[C@@H]1CNCCC[C@H]1O)c1ccc(OCCN2CCOCC2)cc1 was Mtb cholesterol medium: 12.35%; Mtb glucose medium: 2.732% & -18.49%. With Cc1ccc(CN2CCn3c(CN(C)C(C)C)cnc3C2)s1.O=C(O)C(F)(F)F.O=C(O)C(F)(F)F the screen gave Mtb cholesterol medium: -2.628%; Mtb glucose medium: 10.36%. CCOC(=O)CC(c1ccc(OC)c(OC)c1)c1c(O)n[nH]c1C (configuration not stated) read Mtb cholesterol medium: -1.3%; Mtb glucose medium: 3.284% & 0.8013%. FC(F)Oc1ccccc1CN1CCCC(c2nccn2CC2CC2)C1 (configuration not stated) gave Mtb cholesterol medium: 18.37%; Mtb glucose medium: 70.91% & 31.53%. For COc1cc(Cl)c(C)cc1-n1nnc(C(=O)O)c1C the result was Mtb cholesterol medium: 11.31%; Mtb glucose medium: -7.651%. For CCN(CC)CC[C@H]1CN(C(=O)C2CCC2)CC[C@H]1CC(=O)O the result was Mtb cholesterol medium: 21.01%; Mtb glucose medium: 5.813% & 8.592%. Result for CC(C)OCCS(=O)(=O)N1CCN(Cc2cccn2C)CC1 was Mtb cholesterol medium: -1.478%; Mtb glucose medium: 2.403% & -20.62%.

For Cc1nc2cc(NCc3cnn(C)c3)ccc2n1C the result was Mtb cholesterol medium: 3.499%; Mtb glucose medium: -6.395% & -18.35%. O=C(O)C(F)(F)F.[H][C@@]12CCCO[C@]1([H])[C@H](N(C)C)CN2C(=O)c1ccc(C#N)cc1 read Mtb cholesterol medium: -14.44%; Mtb glucose medium: -34.6% & 1.55%. With Cc1nc(-c2ccccc2)n(CC(=O)NC(C2CC2)C2CC2)n1 the screen gave Mtb cholesterol medium: -3.216%; Mtb glucose medium: 3.211% & -7.67%. CCN(CC1CCOC1)C(=O)c1ccn(-c2ccc(OC)cc2)n1 (configuration not stated) read Mtb cholesterol medium: -3.963%; Mtb glucose medium: -15.31% & 9.708%. For CCC(C)c1ccc(NC(=O)C2CCN(C(=O)COC)CC2)cc1 (configuration not stated) the result was Mtb cholesterol medium: -3.716%; Mtb glucose medium: 5.958%. Result for Cc1[nH]/c(=N\C(=O)c2csc(NCC(C)C)n2)sc1C was Mtb cholesterol medium: -25.49%; Mtb glucose medium: -23.88%. O=c1cc(Cn2cncn2)nc2n1CCCN(Cc1ccsc1)C2 read Mtb cholesterol medium: 3.766%; Mtb glucose medium: 1.924%. Result for O=C(O)C(F)(F)F.O=C(O)C(F)(F)F.[H][C@@]12CC(COc3ccccn3)C[C@@]1([H])N(Cc1csc(C)n1)CCO2 (some centres not stated) was Mtb cholesterol medium: 3.021%; Mtb glucose medium: 30.38%.

Result for COc1ccc(CCNCc2c(C)nn(C)c2N(C)C)cc1OC.Cl was Mtb cholesterol medium: -23.28%; Mtb glucose medium: 23.66%. Cc1nc(C2CCCN2C(=O)c2cc3c(s2)CCC3)no1 (configuration not stated) read Mtb cholesterol medium: -11.81%; Mtb glucose medium: 1.535% & -37.99%. O=c1nc(CNc2ccccc2)[nH]n1Cc1ccccc1 read Mtb cholesterol medium: -0.9289%; Mtb glucose medium: -12.51% & 2.819%. For CN1CCN(c2ncccc2CNc2ncccc2C#N)CC1 the result was Mtb cholesterol medium: 0.7894%; Mtb glucose medium: 8.138%. [H][C@@]12C[C@H](C(=O)N(C)C)[C@@]([H])(CN(S(=O)(=O)c3ccccc3)C1)O2 read Mtb cholesterol medium: -23.85%; Mtb glucose medium: 21.02%. With OC1(CN2CCCC2)CCCN(Cc2c[nH]c(CC3CCCC3)n2)C1 (configuration not stated) the screen gave Mtb cholesterol medium: 20.9%; Mtb glucose medium: 44.88%. With CCCn1cc(C(=O)N(C)Cc2nc(-c3ccccn3)no2)c(C)n1 the screen gave Mtb cholesterol medium: -1.216%; Mtb glucose medium: -13.39%.

For reference, 4 entries once more:

| compound | Mtb cholesterol medium | Mtb glucose medium |
|---|---|---|
| `CC(C)OCCS(=O)(=O)N1CCN(Cc2cccn2C)CC1` | -1.478 | 2.403 & -20.62 |
| `Cc1nc(-c2ccccc2)n(CC(=O)NC(C2CC2)C2CC2)n1` | -3.216 | 3.211 & -7.67 |
| `O=C(O)C(F)(F)F.[H][C@@]12CCCO[C@]1([H])[C@H](N(C)C)CN2C(=O)c1ccc(C#N)cc1` | -14.44 | -34.6 & 1.55 |
| `CCOc1ccc(NC(=O)N2CCC(n3cncn3)CC2)cc1Cl` | -11.25 | 8.322 |

From ChEMBL document CHEMBL3988442, “University of Dundee, Small-Polar-MMV Screening Library” (2021).